According to patent US20240132431A1, “METHOD FOR ALKYLATING ACIDIC FUNCTIONAL GROUP” (Chugai Seiyaku Kabushiki Kaisha, priority 2021, published 2024):
At least one structure is not confirmed: it was looked up by name or label, or the drawing left a doubt.

Protein sequences, listed by entry. Tags and fused reporters are not part of them.
UniProt P10415, whole entry: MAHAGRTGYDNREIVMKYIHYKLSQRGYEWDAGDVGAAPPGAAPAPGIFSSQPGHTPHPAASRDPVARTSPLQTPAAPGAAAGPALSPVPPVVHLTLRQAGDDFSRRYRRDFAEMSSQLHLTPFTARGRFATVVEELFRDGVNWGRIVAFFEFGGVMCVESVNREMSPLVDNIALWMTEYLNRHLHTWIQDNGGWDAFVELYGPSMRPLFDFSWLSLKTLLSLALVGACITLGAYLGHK

Molecular target: T1, Bcl-2 protein (Recombinant Human Bcl-2 Protein) (Homo sapiens, UniProt P10415)
T1 construct: purchased Novus NBP2-34889
Assay: Binding evaluation of mixture library compounds to Bcl-2 using AS-MS (affinity selection mass spectrometry)
Method: For one well of MICROPLATE, 96-well, PP, V-BOTTOM (Greiner bio-one, 651201), DMSO solutions of 12 mixtures (prepared to approximately 0.58 mM based on calculations from the average molecular weight of each mixture), in each of which 100 compounds are mixed, were each dispensed, and dispensed into a total of 12 wells, where the 12 mixtures are mixAI-B4J-01, mixAI-B1M-01, mixAI-B1K-01, mixAI-B10-01, mixAI-B1A-01, mixAI-B3A-01, mixAI-B21-01, mixAI-B2L-01, mixAI-B2N-01, mixAI-B2A-01, mixAI-B2Q-01, and mixAI-B2R-01 listed in [Table AI-03-B4J-01], [Table AI-03-B1M-01], [Table AI-03-B1K-01], [Table AI-03-B10-01], [Table AI-03-B1A-01], [Table AI-03-B3A-01], [Table AI-03-B2I-01], [Table AI-03-B2L-01], [Table AI-03-B2N-01], [Table AI-03-B2A-01], [Table AI-03-B2Q-01], and [AI-03-B2R-01] shown in Example 6. Using the LABCYTE ECHO® 555 Acoustic Dispensing System (BECKMAN COULTER), 70 nL was collected from each of the 12 wells into one arbitrary well to prepare a sample solution with 1200 compounds in the mixed state (the presence of 1152 compounds had already been identified when prepared in Example 6-5-3). (In the present specification, the mixture collected in this one well is referred to as one library.) Furthermore, a Bcl-2 protein (Novus, NBP2-34889, Recombinant Human Bcl-2 Protein, Lot E60145051) (19.2 μL) that had been prepared in advance to be 20.9 μM using a Tris-HCl buffer (25 mM Tris-HCl pH 7.4, 150 mM NaCl, 0.025% Tween-20, 1 mM DTT) was added to the well in which 1200 compounds (the presence of 1152 compounds had already been identified when prepared in Example 6-5-3) were dispensed (final compound concentration […], final Bcl-2 concentration 20 μM), and the mixture was incubated in the dark at 23° C. for 1 hour. Next, using the 96-well MacroSpin column, P-2 Material (Harvard, 74-5655) that had been swollen, conditioning of the 96-well MacroSpin column was performed three times by centrifugation with 200 μL of an assay buffer (25 mM Tris-HCl pH 7.4, 150 mM NaCl, 0.025% Tween-20, 1 mM DTT), 2000 XG, 4° C., 2 min. Subsequently, 20 μL of the sample after incubation was added to the 96-well MacroSpin column, P-2 Material, that had been conditioned, and SEC treatment was performed by centrifugation at 2000×G for 2 minutes. To the liquid passed from the SEC, 32 μL of a 1:1 mixed solution of acetonitrile and methanol (LC/MS grade, Fujifilm Wako Pure Chemical Corporation) was added, the mixture was centrifuged at 1800×G, 4° C., 5 min, and the supernatant was used as analysis sample ASMS (A), while a sample that had been prepared by the same operations at 1200 compounds/well and to which only the Tris-HCl buffer had been added without the Bcl-2 protein was incubated under the same conditions, no 96-well MacroSpin column treatment was performed, the same organic solvent was added, and the supernatant solution obtained by centrifugation was used as STD (B). Next, a sample that had been prepared by the same operations at 1200 compounds/well and to which only the Tris-HCl buffer had been added without the Bcl-2 protein was incubated under the same conditions, the same 96-well MacroSpin column treatment was performed, the same organic solvent was added, and the supernatant solution obtained by centrifugation was used as BK (C), and measured by reversed phase LC/MS.
Then, analysis of the 1200 compounds was carried out for samples A, B, and C with TraceFinder 5.1 (Thermo Fisher Scientific) and CHANCE Software (in-house), and the ASMS Ratio (%) was calculated according to the following calculation formula.
Calculation formula: ASMS Ratio(%)=(A−C)/B×100

Structure (SMILES)	ASMS ratio (%) (n = 1)	ASMS ratio (%) (n = 2)
CCOc1cncc(C#Cc2ccccc2C(=O)N2CCN(c3ccc(C(=O)NS(=O)(=O)C(C)(C)C)cc3)CC2)c1 [B2L030-01, N-tert-Butylsulfonyl-4-[4-[2-[2-(5-ethoxypyridin-3-yl)ethynyl]benzoyl]piperazin-1-yl]benzamide]	0.0	0.0
CCOc1cncc(-c2cnn(-c3cc(C(=O)N4CCN(c5ccc(C(=O)NS(=O)(=O)C(C)(C)C)cc5)CC4)cc(C(F)(F)F)c3)c2)c1 [B2L044-01, N-tert-Butylsulfonyl-4-[4-[3-[4-(5-ethoxypyridin-3-yl)pyrazol-1-yl]-5-(trifluoromethyl)benzoyl]piperazin-1-yl]benzamide]	0.0	0.0
CCOc1cncc(-c2cc(OC)c(CN3CCN(c4ccc(C(=O)NS(=O)(=O)C(C)(C)C)nn4)CC3)c(OC)c2)c1 [B2L086-01, N-tert-Butylsulfonyl-6-[4-[[4-(5-ethoxypyridin-3-yl)-2,6-dimethoxyphenyl]methyl]piperazin-1-yl]pyridazine-3-carboxamide]		0.0
CCOc1cncc(-c2ccc(CN3CCN(c4ccc(C(=O)NS(=O)(=O)C(C)(C)C)cc4)CC3)c3ccccc23)c1 [B2L066-01, N-tert-Butylsulfonyl-4-[4-[[4-(5-ethoxypyridin-3-yl)naphthalen-1-yl]methyl]piperazin-1-yl]benzamide]	0.0	0.0
